According to patent publication US20130323248A1:
These are yes or no findings as the source states them, for the method shown. Some results given as binding are weak or reduced against the parent protein; the word gives no strength. Blank lines part the entries; values can stand above or below the binder they belong to.

Protein sequences, listed by entry. Tags and fused reporters are not part of them. Lines headed by an entry give the natural chain unless they say otherwise; changes in a name come on top. Residues count along the entry.
UniProt Q9NR61: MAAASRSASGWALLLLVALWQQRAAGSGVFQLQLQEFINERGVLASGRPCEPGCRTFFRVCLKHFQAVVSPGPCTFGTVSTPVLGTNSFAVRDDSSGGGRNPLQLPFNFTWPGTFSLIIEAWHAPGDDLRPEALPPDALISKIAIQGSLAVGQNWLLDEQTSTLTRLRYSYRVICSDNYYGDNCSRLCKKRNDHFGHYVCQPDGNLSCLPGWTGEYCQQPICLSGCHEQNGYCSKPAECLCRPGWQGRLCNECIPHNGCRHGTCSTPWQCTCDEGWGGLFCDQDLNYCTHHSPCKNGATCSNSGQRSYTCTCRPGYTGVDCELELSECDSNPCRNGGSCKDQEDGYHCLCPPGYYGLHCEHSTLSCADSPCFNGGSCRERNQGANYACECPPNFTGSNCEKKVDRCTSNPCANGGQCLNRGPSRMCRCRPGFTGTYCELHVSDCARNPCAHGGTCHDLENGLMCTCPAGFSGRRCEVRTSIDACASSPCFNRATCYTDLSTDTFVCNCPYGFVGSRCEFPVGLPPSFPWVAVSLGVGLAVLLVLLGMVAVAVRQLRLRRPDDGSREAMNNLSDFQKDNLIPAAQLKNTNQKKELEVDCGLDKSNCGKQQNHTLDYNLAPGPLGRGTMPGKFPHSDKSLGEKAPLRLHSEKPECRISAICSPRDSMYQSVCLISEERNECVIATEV
human DLL-4 expressed on the surface of CHO-K1 cells (CHO-DLL-4 cells): residues 27-685 of Q9NR61
recombinant human DLL4 (rhDLL4): residues 27-524 of Q9NR61

Legend:
[1] = target: recombinant human DLL4 (rhDLL4) (human) (UniProt Q9NR61); assay: Octet; rhDLL4 captured by an immobilized antibody, second antibody run
[2] = target: recombinant human DLL4 (rhDLL4) (human) (UniProt Q9NR61); assay: Octet; epitope mapping in relation to OMP21M18
[3] = target: human DLL-4 expressed on the surface of CHO-K1 cells (CHO-DLL-4 cells) (human) (UniProt Q9NR61); assay: flow cytometry (HTFC) on CHO-K1 cells stably expressing DLL-4

binding [1]: binds | binding [2]: binds
B1: anti-DLL-4 antibody C5 (antibody, V domains shown)
VH: QVQLQQSGPGLVKPSQTLSLTCAISGDSVSSNSAAWNWIRQSPSRGFEWLGRTEYRSKWYNDYAVSVESRITINPDTSKNHFSLQLNSVTPEDTAVYYCARDGNTFSFDYWGQGTLVTVSS
VL: QSVVTQPPSVSAAPGQKVTISCSGGSSNIGNNYVSWYQQIPGTAPKLLIYDNNNRPSGIPDRFSGSKSGASATLGISGLQTGDEANYYCGAWDSTLSGYVFGTGTKLTVL

binding [3]: binds
B2: anti-DLL-4 antibody C10 (antibody, V domains shown)
VH: QVQLVESGAEVKKPGASVKVSCKASGYTFTSYYMHWVRQAPQGLEWMGIINPSGGSTSYAQKFQGRVTMTRDTSTNTVYMELSSLRSEDTAVYYCARDVWGGYFDYWGQGTLVTVSS
VL: QSVLTQPASVSGSPGQSITISCTGTSSDVGGYNYVSWYQQHPGKAPKLMIYDVTNRPSGVSNRFSGSKSGNTASLTISGLQAEDEADYYCSSYTSSSTVIFGGGTKLTVL
